{"source": "PubChem BioAssay AID504467", "about": "(National Center for Advancing Translational Sciences (NCATS), 2011)", "note": "“And” between values parts separate entries of the source, which are not always exact repeats. Equal values may be shown once. Screen size: about 330,000 compounds; about 7,700 (2.3%) were called active. The shares of active, inactive and inconclusive entries below differ from those in the screen. The call rests on the fitted dose curve; in most records, active means well fitted inhibition curve with a large enough effect; inconclusive means small, poorly fitted or top-dose-only effect, or effect the other way; inactive means flat fitted curve, though single readings scatter. A potency beside an inconclusive call is a rough fit, not a confirmed value. On the % scale 0 is the no-effect control and ±100 the full control effect; potency means the concentration at half of the fitted maximal effect.", "data": [{"assay": "qHTS screen for small molecules that inhibit ELG1-dependent DNA repair in human embryonic kidney (HEK293T) cells expressing luciferase-tagged ELG1; further: nearly all actives have a fitted effect of over 55% in size", "conditions": "HEK293T ELG1-luciferase reporter, luminescence, 16 h, DNA damage induced by 5-fluorouridine; activity change, negative = inhibition: at 46.1 µM (top of the series)", "method_in_brief": "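Cells (2,000 per well) received 5-fluorouridine plus test compound or DMSO and were incubated 16 hr at 37 °C, 5% CO2. Luciferase activity was read by luminescence 30 min after ONE-Glo addition; signal suppression marked inhibition of damage-induced ELG1 function.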", "values": [{"smiles": "CCCC1=C(C(=O)OCC)C(c2cccs2)C(C#N)=C(N)O1", "note": "(stereo not given)", "Potency": "inactive"}, {"smiles": "CNC(=O)c1[nH]cnc1C(=O)Nc1ccccc1", "Potency": "inconclusive: 25.9 µM [activator, partial curve, poor fit]"}, {"smiles": "CCc1cccc(NS(=O)(=O)c2ccc3c(c2)N(C)CCO3)c1", "Potency": "inactive"}, {"smiles": "O=[N+]([O-])c1ccc(C[n+]2cccc3c4ccccc4ccc32)cc1", "Potency": "inconclusive: 6.51 µM [inhibitor, single point]"}, {"smiles": "CCN1CCN(Cc2ccc(NC(=O)c3cc(NC(=O)c4ccc5n[nH]nc5c4)cc(OC)c3)cc2C(F)(F)F)CC1", "Potency": "inactive"}, {"smiles": "O=c1[nH]c(CSc2cccc[n+]2[O-])nc2ccccc12", "Potency": "inconclusive: 11.6 µM [activator, partial curve]"}, {"smiles": "COC(=O)[C@H](CC(C)C)N1Cc2cc(OC)cc(OC)c2-c2ccccc2S1(=O)=O", "Potency": "inconclusive: 8.2 µM [inhibitor, partial curve]"}, {"smiles": "Cc1cn(C2OC(COC(=O)c3ccccc3)C(OC(=O)c3ccccc3)C2OC(=O)c2ccccc2)c(=O)[nH]c1=O", "note": "(stereo not given)", "Potency": "active: 4.61 µM"}, {"smiles": "Cc1c(C(=O)NC2CCC(C)CC2)oc2ccccc12", "note": "(stereo not given)", "Potency": "inconclusive: 23.1 µM [activator, partial curve]"}, {"smiles": "O=C(CSc1ccccc1)Nc1ccccc1C(=O)N1CCCC1", "Potency": "inconclusive: 18.3 µM [activator, partial curve, poor fit]"}, {"smiles": "CC(C(=O)Nc1ccc(S(=O)(=O)N2CCCC2)cc1)N1CCN(c2ccccc2O)CC1", "note": "(stereo not given)", "Potency": "inconclusive: 4.11 µM [inhibitor, partial curve]"}, {"smiles": "O=c1ccc(S(=O)(=O)N2CCCC2)cn1Cc1ccc(Cl)cc1Cl", "Potency": "inactive"}, {"smiles": "COc1ccc(CCN2CC(C(=O)NCCc3ccccc3)CC2=O)cc1OC", "note": "(stereo not given)", "Potency": "inconclusive: 29.1 µM [activator, single point]"}, {"smiles": "O=C(CC1SC(N2CCCCC2)=NC1=O)Nc1ccc(C(=O)Nc2ccccc2)cc1", "note": "(stereo not given)", "Potency": "inconclusive: 7.3 µM [inhibitor, single point]"}, {"smiles": "Cc1cccc(NC(=O)C2CCCN(S(=O)(=O)c3ccc4c(c3)oc(=O)n4C)C2)c1", "note": "(stereo not given)", "Potency": "inactive"}, {"smiles": "Cc1nc(C)c(CC(=O)N2CCc3c([nH]c4ccccc34)C2c2ccccn2)s1", "note": "(stereo not given)", "Potency": "inconclusive: 29.1 µM [inhibitor, single point]"}, {"smiles": "Cc1ccc(C(=O)N/N=C\\c2ccncc2)s1", "Potency": "inconclusive: 18.3 µM [activator, single point]"}, {"smiles": "Nc1cccc(-c2cn3cc(C(F)(F)F)cc(Cl)c3n2)c1", "Potency": "inconclusive: 0.58 µM [activator, full curve]"}, {"smiles": "Cc1ccc(C2CC(C(F)(F)F)n3nc(C(=O)NCc4c(C)nn(C)c4C)c(Cl)c3N2)cc1", "note": "(stereo not given)", "Potency": "active: 11.6 µM"}, {"smiles": "Nc1c(C(=O)Nc2ccc3c(c2)OCCO3)nnn1Cc1ccc(Br)cc1", "Potency": "inconclusive: 2.59 µM [activator, full curve]"}, {"smiles": "C/C(=N\\Nc1nc(N2CCOCC2)nc(N2CCOCC2)n1)c1cccc([N+](=O)[O-])c1", "Potency": "inconclusive: 23.1 µM [inhibitor, single point]"}, {"smiles": "Cc1cccn2c(=O)nc(SCC(=O)c3ccc(Cl)cc3)nc12", "Potency": "inconclusive: 25.1 µM [activator, partial curve, poor fit]"}, {"smiles": "Fc1ccc(SCCc2ccccn2)cc1", "Potency": "inconclusive: 20.6 µM [activator, single point] and inconclusive: 20.6 µM [activator, partial curve]"}, {"smiles": "Cc1ccc(NC(=O)CCn2c(=O)c3cccn3c3ccccc32)c(C)c1", "Potency": "inactive"}, {"smiles": "Cn1c(SCC(=O)Nc2nccs2)nnc1-c1ccc(S(=O)(=O)N2CCCC2)cc1", "Potency": "inactive"}, {"smiles": "CCOC(=O)Cc1csc(NC(=O)CSc2nc(=O)[nH]c3c2CCC3)n1", "Potency": "inactive"}, {"smiles": "C=CCOC(=O)Cn1cnc2c(sc3nc(C)cc(C)c32)c1=O", "Potency": "inactive"}, {"smiles": "CCc1ccc(NC(=S)NC(=O)CC(C)C)cc1", "Potency": "inconclusive: 13 µM [activator, partial curve]"}, {"smiles": "COc1ccccc1CN1C(=O)[C@@H]2C(CCC(N)=O)NC3(C(=O)Nc4c3ccc(Cl)c4C)[C@@H]2C1=O", "note": "(stereo not given in full)", "Potency": "inconclusive: 9.2 µM [inhibitor, partial curve]"}, {"smiles": "COc1ccc(C2CC(=O)Oc3cc(C)c(Cl)c(C)c32)cc1", "note": "(stereo not given)", "Potency": "inconclusive: 18.3 µM [inhibitor, partial curve, poor fit]"}, {"smiles": "O=C(CC(Nc1ccccc1Cl)C(=O)O)c1ccccc1", "note": "(stereo not given)", "Potency": "inconclusive: 9.2 µM [activator, partial curve]"}, {"smiles": "CC[C@]12c3[nH]c4cc(-c5ccco5)ccc4c3CCN1C(=O)[C@@H](CC(=O)NCc1ccc(OC)c(OC)c1)C[C@@H]2C(=O)N1CCN(C(=O)C2CC2)CC1", "Potency": "inconclusive: 29.1 µM [inhibitor, single point]"}, {"smiles": "CCN1CCN(c2ccc(NC(=O)c3ccc4c(c3)OCCO4)cc2C)CC1", "Potency": "inconclusive: 4.11 µM [activator, partial curve]"}, {"smiles": "Cc1cccc(C)c1NC(=O)CSCc1cccc(CSCC(=O)Nc2c(C)cccc2C)n1", "Potency": "inconclusive: 20.6 µM [inhibitor, partial curve, poor fit]"}, {"smiles": "CS(=O)(=O)N(CC(=O)NC1CCCCC1)Cc1ccc(F)cc1", "Potency": "inconclusive: 0.146 µM [inhibitor, full curve]"}, {"smiles": "Cc1ccc(S(=O)(=O)N(C)C)cc1NC(=O)COc1ccccc1C(=O)Nc1ccccc1", "Potency": "inconclusive: 25.9 µM [inhibitor, single point]"}, {"smiles": "CC(C)(C)c1ccc(SCCc2ccccn2)cc1", "Potency": "inconclusive: 18.3 µM [activator, partial curve]"}, {"smiles": "CC(=O)c1ccc(N2C(=O)NC3(CCCCC3)C2=O)cc1", "Potency": "inconclusive: 29.1 µM [activator, single point]"}, {"smiles": "COc1ccc(-n2c(=O)c3c4c(sc3n(CC(=O)NC3CCCC3)c2=O)CCCC4)c(OC)c1", "Potency": "inactive"}, {"smiles": "CCCCC(=O)OCC(=O)Nc1ccc(OC(F)F)cc1", "Potency": "inactive"}, {"smiles": "O=[N+]([O-])c1cc(/C=N/N2CCOCC2)cs1", "Potency": "inactive"}, {"smiles": "COc1ccc(/C(C)=N/NC(=O)c2nc(C)cc(C)n2)cc1", "Potency": "inconclusive: 9.2 µM [activator, partial curve]"}, {"smiles": "CCCCC1=CC2=CC(=O)C(C)(OC(=O)CC)C(=O)C2=CN1CCOC", "note": "(stereo not given)", "Potency": "inconclusive: 18.3 µM [activator, partial curve, poor fit]"}, {"smiles": "O=C(c1ccc2c(=O)n3c(nc2c1)CCCCC3)N1CCc2ccccc21", "Potency": "inconclusive: 18.3 µM [activator, partial curve]"}, {"smiles": "O=C(CSc1ccc([N+](=O)[O-])cc1)Nc1cccc(S(=O)(=O)N2CCOCC2)c1", "Potency": "inconclusive: 23.1 µM [inhibitor, single point]"}, {"smiles": "O=c1cc(CN2CCN(S(=O)(=O)c3ccccc3[N+](=O)[O-])CC2)nc2sccn12", "Potency": "inconclusive: 20.6 µM [inhibitor, partial curve, poor fit]"}, {"smiles": "N#CC(C#N)=C1c2cc(S(=O)(=O)NCCO)ccc2-c2ccc(S(=O)(=O)NCCO)cc21", "Potency": "inactive"}, {"smiles": "CC(C(=O)Nc1ccc(C#N)cc1)N(C)CC(=O)Nc1cccc(F)c1", "note": "(stereo not given)", "Potency": "inactive"}, {"smiles": "CC(C)Cc1nc2sc3c(NCc4ccco4)ncnc3c2c2c1COC(C)(C)C2", "Potency": "inconclusive: 9.2 µM [inhibitor, partial curve, poor fit]"}, {"smiles": "O=C(Nc1ccccc1)Nc1nc(-c2ccccc2)cs1", "Potency": "inactive"}, {"smiles": "Cc1cccc(-n2ncc3c2CCCC3NC(=O)CCN2CCCCO2)c1C", "note": "(stereo not given)", "Potency": "inactive"}, {"smiles": "Cc1ccc(NC(=O)Cn2nc(C(=O)O)c3ccccc3c2=O)c([N+](=O)[O-])c1", "Potency": "inactive"}, {"smiles": "CCOc1cc(CNCCO)cc(Br)c1OCc1ccc(Cl)cc1Cl", "Potency": "inconclusive: 20.6 µM [inhibitor, single point]"}, {"smiles": "O=C(Nc1cccc(-c2cn3c(n2)SCC3)c1)c1ccc(Br)o1", "Potency": "inconclusive: 14.6 µM [inhibitor, partial curve, poor fit]"}, {"smiles": "COc1cc(OC)cc(C(=O)NC(C(=O)Nc2ccc3nc(C)sc3c2)C(C)C)c1", "note": "(stereo not given)", "Potency": "inconclusive: 18.3 µM [inhibitor, partial curve, poor fit]"}, {"smiles": "Cc1cccc(OCC(O)CN2CCc3ccccc3C2)c1", "note": "(stereo not given)", "Potency": "inactive"}, {"smiles": "Cc1ccc(S(=O)(=O)N(C)C)cc1NC(=O)COC(=O)CCC(=O)c1ccc(F)cc1", "activity change, negative = inhibition": "inconclusive: 33% [activator]"}, {"smiles": "CCc1cc2c(SCC(=O)N(C)C3CCS(=O)(=O)C3)ncnc2s1", "note": "(stereo not given)", "Potency": "inconclusive: 18.3 µM [inhibitor, partial curve, poor fit]"}, {"smiles": "CC(=O)Nc1ccc(-c2c(C)cc3oc(=O)cc(-c4ccccc4)c3c2C)cc1", "Potency": "inconclusive: 29.1 µM [inhibitor, single point]"}, {"smiles": "CCn1c(O)c(N=Nc2ccc3ccccc3n2)c2ccccc21", "Potency": "inconclusive: 2.59 µM [activator, partial curve]"}, {"smiles": "Cc1ccccc1OCc1nc2ccccc2[nH]1", "Potency": "inconclusive: 7.3 µM [activator, partial curve]"}, {"smiles": "Cc1cc(C)c2c(=O)[nH]c(SCC(=O)Nc3ccc(N(C)C)cc3)nc2n1", "Potency": "inconclusive: 25.9 µM [activator, single point]"}, {"smiles": "COC(=O)c1ccc(CSc2nnc(NC(=O)C3CC(=O)N(c4ccc5c(c4)OCCO5)C3)s2)cc1", "note": "(stereo not given)", "Potency": "inconclusive: 20.6 µM [activator, single point]"}, {"smiles": "O=[N+]([O-])c1ccc(S(=O)(=O)NCCN2CCOCC2)cc1", "Potency": "inconclusive: 18.3 µM [activator, partial curve, poor fit]"}, {"smiles": "CC(=O)c1c(C)[nH]c(C(=O)OCC(=O)c2ccc(C)s2)c1C", "Potency": "inconclusive: 5.17 µM [activator, full curve]"}]}]}
